Measured values published in the supplement of paper PMC3334620.
Over roughly 33,000 sequences, “E-score (-0.5 to 0.5)” has its median near -0.0034; the highest 2% begin near 0.25. Some of the results follow.

Target: T1, Yap3 (UniProt P38749)
T1 sequence: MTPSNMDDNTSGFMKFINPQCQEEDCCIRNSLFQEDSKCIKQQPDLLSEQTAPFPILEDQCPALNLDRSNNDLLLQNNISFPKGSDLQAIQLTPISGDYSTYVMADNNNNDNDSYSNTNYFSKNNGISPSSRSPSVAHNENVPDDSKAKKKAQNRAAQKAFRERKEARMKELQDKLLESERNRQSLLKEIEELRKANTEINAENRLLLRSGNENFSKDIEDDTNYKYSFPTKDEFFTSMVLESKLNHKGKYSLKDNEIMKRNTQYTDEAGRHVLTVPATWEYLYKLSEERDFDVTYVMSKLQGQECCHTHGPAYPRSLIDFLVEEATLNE
Experiment: PBM E-score (8-mer binding enrichment) (E-score (-0.5 to 0.5)); higher = stronger / more preferred TF binding
Details: protein concentration: 100 nM; construct: GST-full length
Procedure: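 Universal 'all 10-mer' protein binding microarrays (Agilent AMADID 015681) probed with GST-tagged S. cerevisiae TFs (full-length or DBD) made by in vitro transcription/translation (PURExpress), about 100-200 nM. Bound TF was detected with fluorescent anti-GST. Each ungapped 8-mer (which stands for itself and its reverse complement) is scored by the PBM enrichment score (E-score), a modified Wilcoxon-Mann-Whitney statistic from -0.5 to +0.5, computed with the Universal PBM Analysis Suite. Scale: above 0.35 generally sequence-specific binding.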

Row | Sequence | PBM E-score
1 | ATTTTTCG | 0.166
2 | GGGTTCAA | 0.0118
3 | GTTGTGAA | 0.0935
4 | ACCAAGTA | 0.00641
5 | GATGGAAA | 0.0333
6 | TCCTCTCA | 0.0272
7 | CTATTGTC | -0.00458
8 | ACGGGAAT | -0.0416
9 | CCATACAA | 0.0687
10 | AAAAATCA | 0.124
11 | GTTCAGGA | -0.135
12 | CCGAAAAA | 0.0899
13 | AGGTGTCA | -0.00693
14 | TGTTCAAA | 0.0771
15 | GGGTGCGA | -0.00811
16 | CTTAGGAA | -0.129
17 | GAGACGAC | -0.0834
18 | CAAATTAC | 0.144
19 | GTCTGGCA | -0.0671
20 | AACTTAGG | 0.00592
21 | TCAACTAA | 0.124
22 | GACGTTAA | 0.142
23 | AGAGTAAC | -0.00051
24 | ACGATAGG | -0.033
25 | TGTGTAAA | 0.167

Row | Sequence | PBM E-score
26 | ACCGTAGT | -0.1
27 | ATCATAGG | -0.0419
28 | AACAATCA | 0.165
29 | CAATCACA | 0.143
30 | ATGAATTC | 0.204
31 | AAACCCAA | 0.185
32 | GCGTTAGC | -0.00029
33 | ACCCGAAG | -0.0881
34 | CACTTTCC | 0.0732
35 | AAGTTGCG | 0.00812
36 | AATGTTGC | 0.0681
37 | ATAGCAAT | 0.215
38 | GGTTGCGA | 0.022
39 | CGGGGTTA | 0.0134
40 | AAGGCCGC | -0.0825
41 | AGATTGGC | -0.133
42 | CCCGCTCC | -0.347
43 | CAGGCACG | -0.127
44 | TATCGAGA | -0.0314
45 | AGAGCAGG | 0.00606
46 | GGTAGCCA | -0.00488
47 | CCCAGGGG | -0.423
48 | ACAAGACT | -0.0784
49 | CTTTCATA | 0.252
50 | GTGACAAC | 0.0975

Row | Sequence | PBM E-score
51 | AAGCCTCC | -0.0921
52 | TAGGGAAA | 0.145
53 | CTGTGTAA | -0.0425
54 | AATCATAT | 0.142
55 | CAGGATAC | -0.0223
56 | GAAAGACC | -0.139
57 | CGACTCTC | -0.0925
58 | ACGGTTCG | -0.163
59 | GCTAGAGA | 0.0781
60 | GAGATGAA | 0.043
61 | AAAATAGG | 0.213
62 | CCGGCGCC | -0.132
63 | GGTGGACA | -0.0281
64 | AAATTCGG | 0.153
65 | CTATATCA | 0.264
66 | ATAGAGTG | 0.0278
67 | CTTGATTA | 0.0486
68 | ATGACCAG | 0.0555
69 | AGATGAAC | 0.132
70 | ACGTTCGA | -0.067
71 | AAAATGTA | 0.163
72 | GAACCATC | 0.0683
73 | CACGCGGA | 0.223
74 | CCCTGACG | -0.168
75 | CCCGGGGC | -0.331

Row | Sequence | PBM E-score
76 | ATGTACAC | 0.0542
77 | GACCAAAA | 0.115
78 | GCGGATAA | 0.156
79 | AACTCAGT | -0.0297
80 | GATAGTCA | -0.12
81 | GTATGGAA | 0.0621
82 | GCTCTTAA | -0.0627
83 | GGGGTAGA | 0.0701
84 | CCTGTGAA | 0.0681
85 | AATAGCTA | 0.0193
86 | CCGCCAAA | -0.0113
87 | AACTACAC | 0.0971
88 | CCACCCAG | -0.0491
89 | TACACAAA | 0.214
90 | GGGCTCCA | -0.262
91 | CAGGTACA | -0.0994
92 | CATATTCC | -0.0894
93 | AAAGCATA | 0.188
94 | ATCTATAA | 0.0384
95 | AAAATCTC | 0.0391
96 | CTTCGAGC | -0.126
97 | ATTCGCCA | 0.062
98 | CTGACCAC | -0.0928
99 | GCCAAGAC | -0.195
100 | GCTAACCA | 0.0336

Row | Sequence | PBM E-score
101 | AGCCCTAG | -0.106
102 | TCACCTCA | 0.0017
103 | TATTGTAA | 0.0692
104 | CGGCTCAA | 0.00645
105 | AGGCCTCC | -0.0772
106 | GGATTCAC | 0.0513
107 | ATTGGCTG | -0.112
108 | GAGCTTAC | -0.0111
109 | AAGTCGCT | -0.146
110 | GGAGGCCC | -0.349
111 | CGCCGGGC | -0.143
112 | CATTAAAA | 0.281
113 | ATGCTAAT | 0.0822
114 | CGTGATGA | 0.0553
115 | ACCCTCTG | -0.16
116 | AAGGCCTA | -0.136
117 | CTTTGCGA | -0.0112
118 | ACTTGACG | -0.0458
119 | GCATGTTA | 0.0238
120 | GAAAGGTC | -0.0358
121 | CGTGTTAG | 0.13
122 | ACTCATAT | 0.0829
123 | AAAGTGGA | 0.111
124 | AGGACGAG | -0.139
125 | CTAGTTTA | 0.106

Row | Sequence | PBM E-score
126 | CGCGCTTA | 0.265
127 | CATTTACA | 0.0781
128 | GGTTGATA | -0.102
129 | GAGAGGCC | -0.151
130 | AATTGTGT | 0.12
131 | GTACGTGA | 0.00327
132 | AGGAAGTG | 0.143
133 | CCGACACC | -0.246
134 | GGCTGAAC | -0.0311
135 | GCGTCTTA | -0.103
136 | ATGAAATG | 0.0575
137 | GCGCAACA | -0.0666
138 | CCGGTAAC | -0.00983
139 | ATACGGTG | 0.0843
140 | AACTACCT | 0.147
141 | ACGACGTA | 0.0327
142 | CTAAAGCC | -0.0724
143 | ATAAGTTG | 0.0657
144 | ACGATGCC | -0.351
145 | ATCAACAA | 0.228
146 | CAAGTTAA | 0.127
147 | ACTATACT | 0.194
148 | TTCCCCAA | -0.00879
149 | AAACGACT | 0.0293
150 | CTATCATA | 0.12

Row | Sequence | PBM E-score
151 | CACGCTTC | -0.306
152 | CTGTTCAA | 0.0116
153 | GTGCGCTA | 0.0719
154 | AAATAGCT | -0.00307
155 | CCCATTTC | -0.137
156 | CAAAGGCA | -0.0657
157 | TCGTCCAA | 0.0591
158 | GCATGCCA | -0.126
159 | ATGGGAAT | -0.0968
160 | CAGCATCA | -0.0104
161 | GCCATTTA | 0.0915
162 | TATTTTGA | 0.126
163 | CCAGGCCA | -0.256
164 | AATGTTCG | 0.0025
165 | TAGACAAA | 0.0484
166 | CTGCATAC | 0.125
167 | ATCTCTAG | -0.12
168 | ATACTTTA | 0.224
169 | CCGTCCCC | -0.338
170 | CCGCATGC | -0.00346
171 | AACTGGCA | 0.0472
172 | CCCAGCAG | -0.205
